The list shows a part of the results.

Amino acid sequences for entries named in this document (tags omitted). A change or cut given only in a name is not applied to a line headed by its entry.
UniProt P10636, whole entry: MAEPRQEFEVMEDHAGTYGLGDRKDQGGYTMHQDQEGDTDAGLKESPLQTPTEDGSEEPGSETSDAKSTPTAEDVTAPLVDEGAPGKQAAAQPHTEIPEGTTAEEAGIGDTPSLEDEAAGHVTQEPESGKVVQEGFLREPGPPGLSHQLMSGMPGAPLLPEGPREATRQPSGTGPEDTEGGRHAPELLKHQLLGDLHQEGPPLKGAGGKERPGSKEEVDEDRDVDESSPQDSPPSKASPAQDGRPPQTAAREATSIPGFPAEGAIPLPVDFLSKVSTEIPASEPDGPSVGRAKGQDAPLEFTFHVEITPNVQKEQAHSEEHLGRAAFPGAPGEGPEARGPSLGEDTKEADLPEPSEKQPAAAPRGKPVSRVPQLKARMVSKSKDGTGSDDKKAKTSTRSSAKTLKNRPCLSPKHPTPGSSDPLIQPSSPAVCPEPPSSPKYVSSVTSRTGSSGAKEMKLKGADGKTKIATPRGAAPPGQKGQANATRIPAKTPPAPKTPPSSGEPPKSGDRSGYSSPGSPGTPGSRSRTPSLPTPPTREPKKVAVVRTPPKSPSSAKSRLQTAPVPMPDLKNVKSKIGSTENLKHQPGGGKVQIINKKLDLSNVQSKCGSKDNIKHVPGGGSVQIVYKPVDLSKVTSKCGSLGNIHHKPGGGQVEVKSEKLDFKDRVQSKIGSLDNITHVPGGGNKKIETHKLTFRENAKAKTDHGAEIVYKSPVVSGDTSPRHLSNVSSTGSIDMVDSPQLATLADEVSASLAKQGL
UniProt O43813, whole entry: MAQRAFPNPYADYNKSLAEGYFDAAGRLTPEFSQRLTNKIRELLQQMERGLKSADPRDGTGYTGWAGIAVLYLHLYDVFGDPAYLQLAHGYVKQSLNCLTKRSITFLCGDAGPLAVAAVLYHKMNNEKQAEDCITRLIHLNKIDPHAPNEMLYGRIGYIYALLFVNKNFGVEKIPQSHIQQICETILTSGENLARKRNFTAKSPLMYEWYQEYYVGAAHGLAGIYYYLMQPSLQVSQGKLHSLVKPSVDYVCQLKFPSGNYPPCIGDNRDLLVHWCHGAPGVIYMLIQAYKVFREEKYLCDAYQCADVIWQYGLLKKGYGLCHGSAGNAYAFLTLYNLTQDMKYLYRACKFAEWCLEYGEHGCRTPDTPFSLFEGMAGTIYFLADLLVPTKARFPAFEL
UniProt Q9HD34: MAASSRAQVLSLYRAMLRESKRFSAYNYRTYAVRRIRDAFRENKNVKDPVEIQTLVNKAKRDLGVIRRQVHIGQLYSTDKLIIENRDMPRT
UniProt P27816: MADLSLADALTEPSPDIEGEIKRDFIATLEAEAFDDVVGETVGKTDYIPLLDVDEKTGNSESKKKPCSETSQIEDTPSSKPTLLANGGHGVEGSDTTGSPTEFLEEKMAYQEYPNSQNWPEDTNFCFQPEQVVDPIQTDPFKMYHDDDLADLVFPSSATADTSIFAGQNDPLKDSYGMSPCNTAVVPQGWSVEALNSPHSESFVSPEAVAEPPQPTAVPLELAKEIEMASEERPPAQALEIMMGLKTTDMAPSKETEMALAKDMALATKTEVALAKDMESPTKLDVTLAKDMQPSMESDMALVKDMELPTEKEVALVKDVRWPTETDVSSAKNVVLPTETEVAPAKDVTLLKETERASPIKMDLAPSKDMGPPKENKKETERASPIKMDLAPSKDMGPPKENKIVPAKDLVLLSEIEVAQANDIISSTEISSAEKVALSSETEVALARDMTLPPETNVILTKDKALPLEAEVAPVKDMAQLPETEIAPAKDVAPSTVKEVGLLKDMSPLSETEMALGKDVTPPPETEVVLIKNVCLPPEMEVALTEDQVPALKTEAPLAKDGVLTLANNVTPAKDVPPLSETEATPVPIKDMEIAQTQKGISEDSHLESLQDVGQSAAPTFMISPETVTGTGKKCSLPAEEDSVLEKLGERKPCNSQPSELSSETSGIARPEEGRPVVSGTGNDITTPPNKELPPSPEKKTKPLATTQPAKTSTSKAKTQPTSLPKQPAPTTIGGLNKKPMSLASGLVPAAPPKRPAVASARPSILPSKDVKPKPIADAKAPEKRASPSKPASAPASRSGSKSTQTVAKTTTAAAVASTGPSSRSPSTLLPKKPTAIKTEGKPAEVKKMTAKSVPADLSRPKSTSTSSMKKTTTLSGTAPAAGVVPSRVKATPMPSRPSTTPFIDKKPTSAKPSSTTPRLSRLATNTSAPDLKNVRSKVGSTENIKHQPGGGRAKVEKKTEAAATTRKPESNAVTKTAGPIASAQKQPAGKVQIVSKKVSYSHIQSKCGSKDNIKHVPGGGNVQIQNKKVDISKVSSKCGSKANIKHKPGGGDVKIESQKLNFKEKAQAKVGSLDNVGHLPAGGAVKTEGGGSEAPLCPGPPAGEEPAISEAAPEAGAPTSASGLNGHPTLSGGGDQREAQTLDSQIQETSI
UniProt Q8N653: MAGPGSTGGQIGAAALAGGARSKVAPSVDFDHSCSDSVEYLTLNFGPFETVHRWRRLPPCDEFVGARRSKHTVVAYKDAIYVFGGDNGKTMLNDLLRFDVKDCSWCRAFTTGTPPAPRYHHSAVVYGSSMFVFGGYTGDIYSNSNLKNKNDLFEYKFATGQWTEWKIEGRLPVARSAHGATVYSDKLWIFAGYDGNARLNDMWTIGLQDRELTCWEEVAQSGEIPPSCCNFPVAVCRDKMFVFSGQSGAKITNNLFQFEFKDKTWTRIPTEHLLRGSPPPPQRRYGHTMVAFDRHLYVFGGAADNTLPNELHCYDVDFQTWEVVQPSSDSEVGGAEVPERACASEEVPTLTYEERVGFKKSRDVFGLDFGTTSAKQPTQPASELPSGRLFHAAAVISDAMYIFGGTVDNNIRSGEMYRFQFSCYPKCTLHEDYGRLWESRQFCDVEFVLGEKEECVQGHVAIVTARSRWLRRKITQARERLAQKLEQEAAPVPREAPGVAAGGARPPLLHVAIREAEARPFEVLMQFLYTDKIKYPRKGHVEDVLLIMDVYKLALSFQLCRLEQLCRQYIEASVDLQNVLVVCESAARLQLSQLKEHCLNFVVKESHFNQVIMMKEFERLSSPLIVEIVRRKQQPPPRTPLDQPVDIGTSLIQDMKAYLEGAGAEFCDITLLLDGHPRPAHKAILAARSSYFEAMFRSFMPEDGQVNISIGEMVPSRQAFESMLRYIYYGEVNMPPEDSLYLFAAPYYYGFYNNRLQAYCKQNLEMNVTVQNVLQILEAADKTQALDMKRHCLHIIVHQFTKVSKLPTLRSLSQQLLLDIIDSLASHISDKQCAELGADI
UniProt Q9Y2L9: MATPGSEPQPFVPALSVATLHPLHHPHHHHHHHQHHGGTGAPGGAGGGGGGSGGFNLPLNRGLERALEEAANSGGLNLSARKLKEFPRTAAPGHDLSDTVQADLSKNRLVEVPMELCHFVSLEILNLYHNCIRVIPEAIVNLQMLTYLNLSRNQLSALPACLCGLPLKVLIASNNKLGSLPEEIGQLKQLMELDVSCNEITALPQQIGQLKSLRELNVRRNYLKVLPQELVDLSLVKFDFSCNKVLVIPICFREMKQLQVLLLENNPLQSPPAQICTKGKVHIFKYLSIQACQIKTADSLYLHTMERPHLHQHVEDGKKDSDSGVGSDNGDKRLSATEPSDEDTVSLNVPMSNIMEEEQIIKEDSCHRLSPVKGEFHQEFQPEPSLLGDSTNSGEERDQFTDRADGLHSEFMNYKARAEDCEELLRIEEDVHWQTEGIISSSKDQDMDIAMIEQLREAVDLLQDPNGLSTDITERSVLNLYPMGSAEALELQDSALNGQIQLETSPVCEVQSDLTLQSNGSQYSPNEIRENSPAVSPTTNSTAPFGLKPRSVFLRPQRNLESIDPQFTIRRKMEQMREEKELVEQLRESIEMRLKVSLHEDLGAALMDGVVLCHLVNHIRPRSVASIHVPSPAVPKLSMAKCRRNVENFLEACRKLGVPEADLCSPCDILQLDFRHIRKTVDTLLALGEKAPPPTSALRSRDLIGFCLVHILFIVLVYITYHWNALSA
UniProt Q9Y4Y9: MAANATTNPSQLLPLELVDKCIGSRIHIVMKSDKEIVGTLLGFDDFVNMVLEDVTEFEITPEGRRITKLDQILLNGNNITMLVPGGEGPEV
UniProt P41214: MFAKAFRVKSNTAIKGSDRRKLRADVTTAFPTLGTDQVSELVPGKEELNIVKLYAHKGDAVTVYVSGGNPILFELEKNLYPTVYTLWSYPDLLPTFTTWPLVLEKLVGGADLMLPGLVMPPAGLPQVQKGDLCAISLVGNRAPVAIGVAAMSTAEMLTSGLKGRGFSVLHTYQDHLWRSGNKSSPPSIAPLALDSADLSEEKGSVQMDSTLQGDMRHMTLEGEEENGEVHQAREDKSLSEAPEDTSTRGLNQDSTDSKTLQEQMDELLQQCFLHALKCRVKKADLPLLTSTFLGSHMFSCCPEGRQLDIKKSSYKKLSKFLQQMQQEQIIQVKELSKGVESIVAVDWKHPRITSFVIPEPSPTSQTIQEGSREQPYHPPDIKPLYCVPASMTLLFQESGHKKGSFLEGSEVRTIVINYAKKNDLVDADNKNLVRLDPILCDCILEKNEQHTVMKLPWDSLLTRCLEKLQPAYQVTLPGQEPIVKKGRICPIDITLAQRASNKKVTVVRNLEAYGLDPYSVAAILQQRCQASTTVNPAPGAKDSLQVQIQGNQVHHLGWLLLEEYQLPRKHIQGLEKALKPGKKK
UniProt Q8TCA0: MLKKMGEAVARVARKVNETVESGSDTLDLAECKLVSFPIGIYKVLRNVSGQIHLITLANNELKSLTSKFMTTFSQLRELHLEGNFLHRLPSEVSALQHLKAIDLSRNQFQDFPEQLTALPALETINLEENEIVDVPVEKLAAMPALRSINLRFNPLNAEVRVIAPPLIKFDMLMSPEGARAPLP
UniProt Q9UGP4: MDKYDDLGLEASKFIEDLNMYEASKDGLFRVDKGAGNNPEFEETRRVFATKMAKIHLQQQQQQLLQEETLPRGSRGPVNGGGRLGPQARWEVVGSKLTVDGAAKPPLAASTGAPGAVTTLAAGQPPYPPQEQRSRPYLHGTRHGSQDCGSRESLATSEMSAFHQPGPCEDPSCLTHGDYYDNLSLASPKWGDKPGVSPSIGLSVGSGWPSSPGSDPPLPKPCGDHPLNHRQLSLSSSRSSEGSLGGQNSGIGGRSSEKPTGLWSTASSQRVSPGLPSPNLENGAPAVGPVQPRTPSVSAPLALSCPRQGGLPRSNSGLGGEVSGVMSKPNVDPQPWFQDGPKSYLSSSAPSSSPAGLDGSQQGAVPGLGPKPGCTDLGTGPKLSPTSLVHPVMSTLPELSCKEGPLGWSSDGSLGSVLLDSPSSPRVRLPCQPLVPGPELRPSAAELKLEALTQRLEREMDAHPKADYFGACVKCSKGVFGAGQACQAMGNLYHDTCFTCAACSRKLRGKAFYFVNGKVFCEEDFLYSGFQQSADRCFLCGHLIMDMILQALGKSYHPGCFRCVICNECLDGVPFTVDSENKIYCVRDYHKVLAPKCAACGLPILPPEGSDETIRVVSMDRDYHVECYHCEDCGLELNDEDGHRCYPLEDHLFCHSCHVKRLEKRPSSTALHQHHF
UniProt O00214: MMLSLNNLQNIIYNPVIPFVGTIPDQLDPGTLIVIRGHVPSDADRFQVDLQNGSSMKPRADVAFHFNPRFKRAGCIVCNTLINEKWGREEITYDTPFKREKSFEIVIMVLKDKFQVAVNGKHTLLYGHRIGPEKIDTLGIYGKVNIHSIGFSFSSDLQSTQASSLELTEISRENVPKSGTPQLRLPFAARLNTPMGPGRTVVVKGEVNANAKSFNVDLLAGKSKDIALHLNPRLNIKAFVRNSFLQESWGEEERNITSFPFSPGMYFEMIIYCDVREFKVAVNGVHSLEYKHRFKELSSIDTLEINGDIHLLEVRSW
UniProt Q6UWP7: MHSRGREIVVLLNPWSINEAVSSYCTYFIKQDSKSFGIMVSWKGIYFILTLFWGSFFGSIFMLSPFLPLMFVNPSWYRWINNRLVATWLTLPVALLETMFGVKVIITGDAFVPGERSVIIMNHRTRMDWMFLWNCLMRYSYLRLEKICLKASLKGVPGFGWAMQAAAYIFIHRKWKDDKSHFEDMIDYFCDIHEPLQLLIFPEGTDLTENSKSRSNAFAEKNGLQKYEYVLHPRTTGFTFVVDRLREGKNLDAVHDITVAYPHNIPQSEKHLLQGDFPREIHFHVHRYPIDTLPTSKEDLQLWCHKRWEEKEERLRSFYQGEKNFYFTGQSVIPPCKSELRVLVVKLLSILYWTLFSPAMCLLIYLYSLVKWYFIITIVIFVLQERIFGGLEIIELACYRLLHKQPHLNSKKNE
UniProt Q16539, whole entry: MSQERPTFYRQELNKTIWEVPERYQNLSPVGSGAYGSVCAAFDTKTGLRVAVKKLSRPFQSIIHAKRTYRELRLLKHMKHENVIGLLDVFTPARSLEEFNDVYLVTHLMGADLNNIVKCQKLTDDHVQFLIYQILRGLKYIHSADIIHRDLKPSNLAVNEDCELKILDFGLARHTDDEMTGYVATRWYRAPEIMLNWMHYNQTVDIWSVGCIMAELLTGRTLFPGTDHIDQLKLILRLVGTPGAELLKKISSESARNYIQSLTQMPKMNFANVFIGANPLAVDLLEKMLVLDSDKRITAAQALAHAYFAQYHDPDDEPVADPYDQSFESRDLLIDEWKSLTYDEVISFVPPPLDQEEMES

Compound in this experiment: COc1ccc(Cn2ccc3cc(C)c(C(=O)NO)cc32)cc1
The experiment is described as follows: dose-dependent thermal stabilisation call (2D-TPP, DLPTP, 10% FDR) (binary (1 = stabilised)); higher = stabilised by the compound. The conditions noted are these: system: HL-60 intact cells; concentration range 0.04-10 µM. How it is done:
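2D thermal proteome profiling in intact HL-60 cells treated with BRD-3811 (0, 0.04, 0.29, 2, 10 uM) for 90 min at 37 C, then heated 3 min at one of 12 temperatures (42-63.9 C). Soluble protein was quantified by TMT10 MS. The value is the DLPTP call of the paper: dose-dependent thermal stabilisation over all temperatures at 10% FDR (F-test of a dose-response against a flat model); one experiment, one call per tested protein.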
LOC728658: the “dose-dependent thermal stabilisation call” value was inactive: 0. Take MAPT (UniProt P10636): the “dose-dependent thermal stabilisation call” value was inactive: 0. Regarding LARS (UniProt Q9P2J5), the “dose-dependent thermal stabilisation call” value is inactive: 0. For the target MAPKAP1 (UniProt Q9BPZ7), the “dose-dependent thermal stabilisation call” value was inactive: 0. LOC221710: the “dose-dependent thermal stabilisation call” value is inactive: 0. On to MAP2K2 (UniProt P36507), for which the “dose-dependent thermal stabilisation call” value is inactive: 0. For LANCL1 (UniProt O43813) the value was inactive: 0; for MCEE (UniProt Q96PE7), inactive: 0.

Take MCFD2 (UniProt Q8NI22): the “dose-dependent thermal stabilisation call” value was inactive: 0. On to KTI12 (UniProt Q96EK9), for which the “dose-dependent thermal stabilisation call” value is inactive: 0. Turning to LOC550643, the “dose-dependent thermal stabilisation call” value is inactive: 0. Regarding LAGE3 (UniProt Q14657), the “dose-dependent thermal stabilisation call” value was inactive: 0. As for LYRM4 (UniProt Q9HD34), the “dose-dependent thermal stabilisation call” value was inactive: 0. Turning to MARS2 (UniProt Q96GW9), the “dose-dependent thermal stabilisation call” value was inactive: 0. For MBOAT7 (UniProt Q96N66) the value was inactive: 0.

On to MAP4 (UniProt P27816), for which the “dose-dependent thermal stabilisation call” value was inactive: 0. To LMF2 (UniProt Q9BU23) belongs inactive: 0; to LZTR1 (UniProt Q8N653), inactive: 0. Turning to LRCH1 (UniProt Q9Y2L9), the “dose-dependent thermal stabilisation call” value is inactive: 0.

On to LYSMD1 (UniProt Q96S90), for which the “dose-dependent thermal stabilisation call” value was inactive: 0. Take LSM5 (UniProt Q9Y4Y9): the “dose-dependent thermal stabilisation call” value is inactive: 0. As to LDB1 (UniProt Q86U70), the “dose-dependent thermal stabilisation call” value was inactive: 0. As for LIMA1 (UniProt Q9UHB6), the “dose-dependent thermal stabilisation call” value is inactive: 0. LSM2 (UniProt Q9Y333): the “dose-dependent thermal stabilisation call” value was inactive: 0. For LMBRD1 (UniProt Q9NUN5) the value was inactive: 0.

In the case of LGTN (UniProt P41214), the “dose-dependent thermal stabilisation call” value was inactive: 0. As to LRP5 (UniProt O75197), the “dose-dependent thermal stabilisation call” value is inactive: 0. For the target LRRC20 (UniProt Q8TCA0), the “dose-dependent thermal stabilisation call” value was inactive: 0. For LOC100129086 the value was inactive: 0; for LACTB2 (UniProt Q53H82), inactive: 0; for LAMP1 (UniProt P11279), inactive: 0. For LRRFIP1 (UniProt Q32MZ4) the value was inactive: 0; for KRR1 (UniProt Q13601), inactive: 0; for LIMD1 (UniProt Q9UGP4), inactive: 0. Take LGALS8 (UniProt O00214): the “dose-dependent thermal stabilisation call” value was inactive: 0. Turning to LCLAT1 (UniProt Q6UWP7), the “dose-dependent thermal stabilisation call” value is inactive: 0. For MARK2 (UniProt Q7KZI7), the “dose-dependent thermal stabilisation call” value is inactive: 0.

For MAPK14 (UniProt Q16539), the “dose-dependent thermal stabilisation call” value is inactive: 0. As to LMTK2 (UniProt Q8IWU2), the “dose-dependent thermal stabilisation call” value is inactive: 0. For MAN2C1 (UniProt Q9NTJ4), the “dose-dependent thermal stabilisation call” value was inactive: 0.
